Data published in US6566359B1, “2,4,6-trimethyl-1,4-dihydro-pyridine-3,5-dicarboxylic acid esters as neuroprotective drugs” (Board of Supervisors of Louisiana State University and …, priority 2002, dated 2003).
Counter-ions that a name gives are not always drawn. At least one structure is not confirmed: it was looked up by name or label, or the drawing left a doubt.

Amino acid sequences for entries named in this document (tags omitted). A change or cut given only in a name is not applied to a line headed by its entry.
UniProt P46002: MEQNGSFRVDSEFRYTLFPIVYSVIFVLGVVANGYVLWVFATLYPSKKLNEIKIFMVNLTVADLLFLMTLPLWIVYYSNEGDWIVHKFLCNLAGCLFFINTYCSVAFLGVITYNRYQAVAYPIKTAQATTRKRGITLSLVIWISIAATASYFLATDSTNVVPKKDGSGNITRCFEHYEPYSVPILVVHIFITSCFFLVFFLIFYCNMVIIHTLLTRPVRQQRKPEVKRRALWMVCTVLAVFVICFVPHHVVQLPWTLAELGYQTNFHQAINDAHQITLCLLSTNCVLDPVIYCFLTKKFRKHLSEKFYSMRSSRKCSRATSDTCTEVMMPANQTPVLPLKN
UniProt P21556: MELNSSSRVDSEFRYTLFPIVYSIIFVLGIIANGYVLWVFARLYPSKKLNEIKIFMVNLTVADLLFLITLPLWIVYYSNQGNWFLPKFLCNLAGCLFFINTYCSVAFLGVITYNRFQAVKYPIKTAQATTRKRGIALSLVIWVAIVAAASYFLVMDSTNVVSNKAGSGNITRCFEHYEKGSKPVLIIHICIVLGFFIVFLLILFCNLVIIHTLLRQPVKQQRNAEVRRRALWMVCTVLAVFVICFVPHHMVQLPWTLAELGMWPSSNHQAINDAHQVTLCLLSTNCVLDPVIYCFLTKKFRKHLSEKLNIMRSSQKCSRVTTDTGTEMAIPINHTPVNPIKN

How the values were obtained:
human COX-2 promoter [1] = test: IL-1β-induced COX-2 promoter-luciferase transcription in CV-1 cells; format: cell-based; details: 100 nM compound, 10 nM IL-1β
Description: (§1) To test the ability of LAU-0900 series compounds to inhibit COX-2 expression, a kidney cell line was transiently transfected with the 830-base-pair human COX-2 promoter construct (proximal to the transcription start site) fused to the luciferase gene as a reporter as described below.
(§2) Transfection of CV-1 cells with human COX-2promoterfused with LUC: C V-1 Cells (African green monkey kidney cell line, ATCC # CCL-17) were grown in DMEM-F12 (GIBCO-BRL, Rockville, Md.) supplemented with 10% FBS (fetal bovine serum) in 6-well plates. […]
(§3) Luciferase assay of transfected CV-1 cells: Frozen cells were homogenized in 300 μl luciferase assay buffer (“ALL”, Analytical Luminescence Laboratory, San Diego, Calif.), and cellular debris was collected as a pellet by centrifugation at 2800×g for 20 min at 4° C. […] The relative light units were determined by using an ALL luminometer that recorded over 20-second intervals.

[2] = MCA-O with 21 days reperfusion, Cresil-Violet histology; format: in vivo, C57-bl/6 mice; details: 30 mg/kg i.p. once 1 hr after onset of reperfusion
Description: In a second group of experiments, C57-bl/6 mice were treated with either a sham procedure, or with 1 hr with MCA-O followed by a reperfusion period of 21 days. Cresil-violet staining was used to assess brain damage in brain slices obtained as above. […] (Data not shown.). […] (Data not shown).
In a third set of experiments, the MCA-O treated mice were injected once with the LAU-0900 series compounds (LAU-0901, LAU-0904, and LAU-0911; at 30 mg/kg) or vehicle 1 hr after the onset of reperfusion. The LAU-0900 compounds were solubilized in 45% 2-hydroxypropyl-β-cyclodextrine (Sigma Chemical Co.), and delivered intraperitoneally. The mice were reperfused for 21 days, and killed. Coronal sections of mouse brains were processed for histology, and stained with Cresil-Violet. Sections from individual animals were analyzed, with pictures of the right side (infarcted) of the brain compared to the left side, which show almost no damage.
(Data not shown). […] Almost normal morphology was found in the brains of the LAU-0900-treated animals, indicating a high degree of protection. (Data not shown), even though administered 1 hr after the initiation of reperfusion.

[3] = system: c-jun aminoterminal protein kinase (JNK); test: PAF-mediated JNK activation in HEK-293 cells, immunocomplex kinase assay; format: cell-based, human; details: 10 nM to 1 μM compound 30 min before PAF 100 nM
Description: Experimental Protocol: HEK-293 cells (transformed primary human embryo kidney cells, ATCC# CRL-1573) were cultured to confluency in DMEM-10% FBS high-glucose medium (GIBCO-BRL, Rockville, Md). Cells were cultured in 6-well plates and were treated with PAF (100 nM) for 60 min or interleukin-1β (“IL-1β”; 10 ng/ml) for 30 min, and then frozen for later assays for JNK and ERK as described below. To test the effect of compounds of the LAU-0900 series, HEK-293 cells were treated for 30 min with various concentrations (from 10 nM to 1 μM) of the experimental LAU-0900 series compound before the addition of PAF or IL-1β. […]
To measure the JNK activity, aliquots of 5 μg immunoprecipitates were incubated for 30 min at 30° C. using 10 μg GST-cJUN (Santa Cruz Biotechnology, Santa Cruz, Calif.) as substrate. […] The filter papers were washed twice with 10 mL per square 1% phosphoric acid, followed by one wash with water. ^32P on the filter paper was counted in a scintillation counter to quantify the phosphorylation of substrate proteins.

[4] = system: extracellular regulated kinase (ERK); test: PAF-mediated ERK activation in HEK-293 cells, immunocomplex kinase assay; format: cell-based, human; details: 1 μM compound
human COX-2 promoter [5] = test: PAF-induced COX-2 promoter-luciferase transcription in CV-1 cells; format: cell-based; details: 100 nM compound, 100 nM PAF, dihydrochloride
Description: as §1, §2, §3

[6] = target: intracellular type PAF receptor (rat brain microsomal preparations) (Rattus norvegicus, UniProt P46002); test: Competition for 3H-PAF binding to rat brain cortex microsomal membranes; details: rat brain cortex microsomal preparation
Description: Binding studies were performed on subcellular fractions of tissues obtained from rat brain cortex, according to procedures described in V. Marcheselli et al., “Distinct platelet-activating factor binding sites in synaptic endings and in intracellular membranes of rat cerebral cortex,” J. biol. Chem., vol. 265, pp. 9140-9145 (1990). Freshly dissected brain tissues were homogenized in ice-cold buffer (50 mM Tris-HCl, 2 mM EGTA, 5 mM PMSF, 250 mM sucrose, 7.4 pH). Subcellular fractions were obtained by differential centrifugation. The microsomal fraction was sedimented after 100,000×g for 1 hour centrifugation. In addition, three cell lines from Chinese hamster ovary (CHO) with varying expression of PAF receptors, CHO-A, CHO-B, and CHO-C cells (from Dr. Takao Shiizu, University of Tokyo, Tokyo, Japan) were cultured to the fourth-passage cells. These cells were cultured to confluence, then detached from their culturing flasks, and pelleted by rapid centrifugation (3,000 rpm, 10 min). Cellular pellets were homogenized in ice-cold buffer as described above. Freshly obtained microsomal fractions or CHO cellular homogenates were utilized for saturation, displacement, and competition studies using ^3H-PAF as the hot ligand, unlabeled-PAF to detect non-specific binding, and a LAU-0900 series compound to displace by competition ^3H-PAF bound to a receptor.

[7] = target: T1, cell-surface-type PAF receptor over-expressed in CHO-B cells (Cavia porcellus, UniProt P21556); test: Competition for 3H-PAF binding to CHO-B cell homogenates
T1 construct: expressed in transfected cells; host or cells: Chinese hamster ovary cells: CHO-B (high expression) and CHO-A (mild expression), used as cell homogenates
Description: Binding studies were performed on subcellular fractions of tissues obtained from rat brain cortex, according to procedures described in V. Marcheselli et al., “Distinct platelet-activating factor binding sites in synaptic endings and in intracellular membranes of rat cerebral cortex,” J. biol. Chem., vol. 265, pp. 9140-9145 (1990). Freshly dissected brain tissues were homogenized in ice-cold buffer (50 mM Tris-HCl, 2 mM EGTA, 5 mM PMSF, 250 mM sucrose, 7.4 pH). Subcellular fractions were obtained by differential centrifugation. The microsomal fraction was sedimented after 100,000×g for 1 hour centrifugation. In addition, three cell lines from Chinese hamster ovary (CHO) with varying expression of PAF receptors, CHO-A, CHO-B, and CHO-C cells (from Dr. Takao Shiizu, University of Tokyo, Tokyo, Japan) were cultured to the fourth-passage cells. These cells were cultured to confluence, then detached from their culturing flasks, and pelleted by rapid centrifugation (3,000 rpm, 10 min). Cellular pellets were homogenized in ice-cold buffer as described above. Freshly obtained microsomal fractions or CHO cellular homogenates were utilized for saturation, displacement, and competition studies using ^3H-PAF as the hot ligand, unlabeled-PAF to detect non-specific binding, and a LAU-0900 series compound to displace by competition ^3H-PAF bound to a receptor. […]

COC(=O)C1=C(C)NC(C)=C(C(=O)OCCCSc2ccc(F)cc2)C1C (stereo not drawn) [LAU-0904, 2,4,6-Trimethyl-1,4-dihydro-pyridine-3,5-dicarboxylic acid 5-[3-(4-fluorophenysulfanyl)]-propyl-1-ester 3-methyl ester]
Inhibition of COX-2 transcription induced by IL-1β (human COX-2 promoter [1]): inhibited
Protection from brain damage (Cresil-Violet histology) [2]: significant protection

CC1=C(C(=O)OCCOc2ccc(Cl)c(Cl)c2)C(C)C(C(=O)OC(CN2CCOCC2)CN2CCOCC2)=C(C)N1 (stereo not drawn) [LAU-0901, 2,4,6-Trimethyl-1,4-dihydro-pyridine-3,5-dicarboxylic acid 5-[2-(3,4-dichlorophenoxy)]ethyl ester 3-[1,3-di-(4-morpholinyl)-2-propyl-1-esterdihydrochloride]
Inhibition of PAF-induced JNK activation [3]: inhibited
Inhibition of PAF-mediated ERK activation [4]: inhibited
Inhibition of COX-2 transcription induced by PAF (human COX-2 promoter [5]): inhibited
Inhibition of COX-2 transcription induced by IL-1β (human COX-2 promoter [1]): inhibited
Protection from brain damage (Cresil-Violet histology) [2]: significant protection

CO/N=C/c1ccc(OCCCOC(=O)C2=C(C)NC(C)=C(C(=O)OC)C2C)cc1 (stereo not drawn) [LAU-0914, 2,4,6-Trimethyl-1,4-dihydro-pyridine-3,5-dicarboxylic acid 3-{3-[4-(methoxylmino-methyl)-phenoxy]-propyl}ester 5-methyl ester]
Competitive activity at 3H-PAF binding sites (curve profile) [6]: competitve activity at the high-affinity binding site only
Significance of 3H-PAF displacement [7]: not significant
